The target in this experiment is ZmSnRK2.10 (endogenous, immunoprecipitated from kernels) (maize (endogenous in B73 kernels)). The experiment can be described thus: affinity purification with mass spectrometry; IP-MS: protein extract of 15-DAP B73 kernels incubated with anti-ZmSnRK2.10 antibody and protein A magnetic beads, 4°C, 4 h; IgG as negative control; washed with PBS with 1% Nonidet P-40.

Results are given in words; binding and its absence hold for the method and conditions named. In cells and extracts the contact can be indirect. A yes stands for co-enrichment or nearness to the bait. Other partners may have been found.

B1: GBSSI (Wx, granule-bound starch synthase), endogenous (enzyme, UniProt P04713 73-605)
chain: ASAGMNVVFVGAEMAPWSKTGGLGDVLGGLPPAMAANGHRVMVVSPRYDQYKDAWDTSVVSEIKMGDGYETVRFFHCYKRGVDRVFVDHPLFLERVWGKTEEKIYGPVAGTDYRDNQLRFSLLCQAALEAPRILSLNNNPYFSGPYGEDVVFVCNDWHTGPLSCYLKSNYQSHGIYRDAKTAFCIHNISYQGRFAFSDYPELNLPERFKSSFDFIDGYEKPVEGRKINWMKAGILEADRVLTVSPYYAEELISGIARGCELDNIMRLTGITGIVNGMDVSEWDPSRDKYIAVKYDVSTAVEAKALNKEALQAEVGLPVDRNIPLVAFIGRLEEQKGPDVMAAAIPQLMEMVEDVQIVLLGTGKKKFERMLMSAEEKFPGKVRAVVKFNAALAHHIMAGADVLAVTSRFEPCGLIQLQGMRYGTPCACASTGGLVDTIIEGKTGFHMGRLSVDCNVVEPADVKKVATTLQRAIKVVGTPAYEEMVRNCMIQDLSWKGPAKNWENVLLSLGVAGGEPGVEGEEIAPLAKENVAAP
For B1, the binding entry is on record as “binds”.
